Among the data in patent US20220009906A1, “ISOINDOLIN-1-ONE DERIVATIVES USEFUL AS GRK2 INHIBITORS” (priority 2020, published 2022) are IC50 values, retold here.

Chains of the proteins cited; added tags and fusions are not shown.
UniProt P25098, whole entry: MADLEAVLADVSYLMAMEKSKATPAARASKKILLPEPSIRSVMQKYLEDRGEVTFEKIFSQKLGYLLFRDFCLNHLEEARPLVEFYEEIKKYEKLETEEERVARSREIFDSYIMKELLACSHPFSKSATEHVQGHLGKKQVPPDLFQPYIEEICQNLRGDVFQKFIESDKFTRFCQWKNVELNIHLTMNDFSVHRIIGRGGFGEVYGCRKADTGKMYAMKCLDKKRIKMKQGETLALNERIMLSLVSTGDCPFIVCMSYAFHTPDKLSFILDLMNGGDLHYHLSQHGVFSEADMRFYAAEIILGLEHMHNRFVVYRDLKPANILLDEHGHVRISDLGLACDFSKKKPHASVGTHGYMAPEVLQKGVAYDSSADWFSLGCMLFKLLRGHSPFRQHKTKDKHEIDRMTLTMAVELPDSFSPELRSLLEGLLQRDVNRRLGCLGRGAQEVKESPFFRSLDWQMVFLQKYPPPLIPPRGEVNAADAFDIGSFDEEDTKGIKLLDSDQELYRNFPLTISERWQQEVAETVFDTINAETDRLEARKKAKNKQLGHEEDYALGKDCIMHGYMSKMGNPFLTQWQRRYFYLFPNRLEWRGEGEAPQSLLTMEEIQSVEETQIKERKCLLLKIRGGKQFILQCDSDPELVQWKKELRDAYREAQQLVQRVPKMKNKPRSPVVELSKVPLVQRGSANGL

Test [1] addresses T1, GRK2 (Homo sapiens, UniProt P25098). The test can be described thus: hGRK2 LANCE Ultra In Vitro Assay. In kind it is biochemical. As to conditions: read-out: Biological Example 1 GRK2 Lancer IC50; 10 nM GRK2; 30 or 600 μM ATP (not stated which); multiple measurements listed individually. (In general: TR-FRET usually uses a lanthanide donor and a delayed reading to cut background.)

The target of test [2] is T1, GRK2. The experiment in a line: GRK2 Transcreener Assay. In kind it is biochemical. As to conditions: read-out: Biological Example 2 GRK2 Transcreener IC50; 10 nM GRK2; 10 μM ATP; 150 μM peptide substrate; multiple measurements listed individually.

The structures given here were assigned with low confidence; some may be wrong. Some results are limits rather than exact numbers.

For orientation: IC50 means the concentration at which inhibition is half-maximal. For `COc1cccc([C@H](C(=O)O)N2Cc3ccc(-c4cn[nH]c4)cc3C2=O)c1`, the IC50 at GRK2 [1] came out at 969 nM.

Consider `COC(=O)C(c1cccc(OC)c1)N1Cc2ccc(-c3cn[nH]c3)cc2C1=O` (centres unmarked), for which the IC50 at GRK2 [1] was 237 nM.

Regarding `COc1cccc(CN2Cc3ccc(-c4c[nH]c5ncccc45)cc3C2=O)c1`, the half-inhibitory concentration (IC50) at GRK2 [2] was 885 nM.

For `CCOc1cccc(CN2C(=O)c3cc(-c4cn[nH]c4)ccc3C2CCN2C(=O)c3ccccc3C2=O)c1` (centres unmarked), the IC50 at GRK2 [2] turned out to be 1620 nM.

On to `COC(=O)COc1cccc(CN2Cc3ccc(-c4cn[nH]c4)cc3C2=O)c1`, for which, on GRK2 [1], the IC50 is below 5 nM.
